# Screening data

From PubChem BioAssay record AID504749 (NCATS, 2011).

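A panel of P. falciparum strains inside erythrocytes is exposed to compounds for three days, then a DNA-binding dye reports the amount of parasite DNA.
Each compound was titrated across a series from about 0.000037 to 29 µM.
The number is the fitted AC50, the concentration giving a half-maximal change in signal; a lower value means higher potency, whether the curve shows a decrease or an increase.
Calls follow the curve class and fit quality: every row here is inconclusive, covering signal-raising curves and weak, poorly fitted, partial or highest-dose-only inhibition curves.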

Values are in µM.
Every entry below has the call inconclusive.
Only part of the assay is shown, chiefly results filed as inconclusive.
Potencies fitted to partial, single-point or poorly fitting curves are rough.
Some entries filed as inconclusive have a full curve.

| # | compound | condition | fitted potency (µM) | curve |
|---|---|---|---|---|
| 1 | `NNc1nncc2ccccc12` | CP256 | 3.162 | inhibitor, partial curve |
| 2 | `NNc1nncc2ccccc12` | N140 | 7.943 | inhibitor, single point |
| 3 | `NNc1nncc2ccccc12` | CP250 | 7.08 | inhibitor, single point |
| 4 | `NNc1nncc2ccccc12` | CP286 | 8.912 | inhibitor, single point |
| 5 | `NNc1nncc2ccccc12` | CP260 | 10 | inhibitor, single point |
| 6 | `NNc1nncc2ccccc12` | PAD | 4.467 | inhibitor, single point |
| 7 | `NNc1nncc2ccccc12` | DIV30 | 7.208 | inhibitor, single point |
| 8 | `NNc1nncc2ccccc12` | PC15 | 7.08 | inhibitor, single point |
| 9 | `CC1C2CCC3C4CC=C5CC(N(C)C)CC[C@@]5(C)C4CC[C@@]32CN1C` (some centres unmarked) | TAB109 | 2.818 | inhibitor, single point |
| 10 | `CC1C2CCC3C4CC=C5CC(N(C)C)CC[C@@]5(C)C4CC[C@@]32CN1C` (some centres unmarked) | W2 | 10.69 | inhibitor, partial curve, poor fit |
| 11 | `CC1C2CCC3C4CC=C5CC(N(C)C)CC[C@@]5(C)C4CC[C@@]32CN1C` (some centres unmarked) | 7G8 | 12.59 | inhibitor, partial curve |
| 12 | `CC1C2CCC3C4CC=C5CC(N(C)C)CC[C@@]5(C)C4CC[C@@]32CN1C` (some centres unmarked) | CP260 | 2.239 | inhibitor, full curve |
| 13 | `COC(=O)Nc1nc2ccc(C(=O)c3ccccc3)cc2[nH]1` | DIV14 | 8.087 | inhibitor, single point |
| 14 | `COC(=O)Nc1nc2ccc(C(=O)c3ccccc3)cc2[nH]1` | GB4 | 8.087 | inhibitor, single point |
| 15 | `COC(=O)Nc1nc2ccc(C(=O)c3ccccc3)cc2[nH]1` | PC26 | 8.087 | inhibitor, single point |
| 16 | `COC(=O)Nc1nc2ccc(C(=O)c3ccccc3)cc2[nH]1` | CP266 | 9.074 | inhibitor, single point |
| 17 | `COC(=O)Nc1nc2ccc(C(=O)c3ccccc3)cc2[nH]1` | CP215 | 6.424 | inhibitor, partial curve, poor fit |
| 18 | `COC(=O)Nc1nc2ccc(C(=O)c3ccccc3)cc2[nH]1` | CP325 | 8.087 | inhibitor, single point |
| 19 | `COC(=O)Nc1nc2ccc(C(=O)c3ccccc3)cc2[nH]1` | CP203 | 9.074 | inhibitor, single point |
| 20 | `COC(=O)Nc1nc2ccc(C(=O)c3ccccc3)cc2[nH]1` | CP305 | 6.424 | inhibitor, partial curve, poor fit |
| 21 | `COC(=O)Nc1nc2ccc(C(=O)c3ccccc3)cc2[nH]1` | CP291 | 6.424 | inhibitor, single point |
| 22 | `COC(=O)Nc1nc2ccc(C(=O)c3ccccc3)cc2[nH]1` | W2 | 0.0144 | inhibitor, full curve, poor fit |
| 23 | `COC(=O)Nc1nc2ccc(C(=O)c3ccccc3)cc2[nH]1` | DIV17 | 8.087 | inhibitor, single point |
| 24 | `COC(=O)Nc1nc2ccc(C(=O)c3ccccc3)cc2[nH]1` | CP269 | 8.087 | inhibitor, single point |
| 25 | `CCCc1nc(C(C)(C)O)c(C(=O)OCc2oc(=O)oc2C)n1Cc1ccc(-c2ccccc2-c2nn[nH]n2)cc1` | ICS | 10 | inhibitor, single point |
| 26 | `CCCc1nc(C(C)(C)O)c(C(=O)OCc2oc(=O)oc2C)n1Cc1ccc(-c2ccccc2-c2nn[nH]n2)cc1` | CP215 | 19.01 | inhibitor, partial curve, poor fit |

The first 2 entries again:

NNc1nncc2ccccc12 [CP256] read fitted potency 3.162 µM (inhibitor, partial curve).
NNc1nncc2ccccc12 [N140] read fitted potency 7.943 µM (inhibitor, single point).